Laboratory results: PubChem BioAssay AID1224827 (NIAID, 2016)
In all, the deposit lists about 3,800 reagents; below is a part drawn at random. Of all reagents, about 2,200 (57%) are marked active. 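Active means a strong reporter change in either direction; calls are per siRNA, not per gene; qiagen siRNAs gave weaker effects.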 Entries without a mark were called inactive. Reagents against one gene are numbered here. Reagent sequences are not shown.

- Aim: 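Retest primary hits on a TNF reporter with six siRNAs per gene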 (follow-up of hits)
- Cell system: RAW264.7 G9 mouse macrophage reporter clone
- Reagents: single siRNA against mouse genes, 100 nM siRNA
- Time to read-out: siRNA for 2 days, then LPS about 16 h
- Treatment: bacterial lipopolysaccharide (LPS), 10 ng/ml, cells fixed after overnight (about 16 h) stimulation
- Detection: 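TNF promoter reporter red fluorescence in nuclei, background subtracted, normalised per plate and to non-targeting control siRNA, as z-scores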
- Reading the numbers: TNF reporter z-score, mean and TNF reporter z-score: higher = stronger Tnf promoter reporter signal; gene median z, three same-vendor siRNAs: higher = stronger Tnf reporter signal for the gene
- Rule for the call: 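Active siRNA: replicate-mean z-score of 2 or more, or -2 or less; no calls for control wells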

no.	gene knocked down	reagent no.	TNF reporter z-score, mean	gene median z, three same-vendor siRNAs	TNF reporter z-score, repeat 1	TNF reporter z-score, repeat 2
1	Psmb5	1	-2.1 (active)	-2.12	-2.32	-1.88
2	Psmb5	2	-2.16 (active)	-2.12	-2.8	-1.52
3	Psmb5	3	-2.63 (active)	-2.12	-3.36	-1.91
4	Psmb5	4	6.6 (active)	-1.7	10.6	2.57
5	Psmb5	5	-1.7	-1.7	-1.37	-2.03
6	Psmb5	6	-2.75 (active)	-1.7	-2.53	-2.96
7	Sgpl1	1	2.43 (active)	-1.19	1.55	3.32
8	Sgpl1	2	-1.19	-1.19	-1.06	-1.31
9	Sgpl1	3	-2.34 (active)	-1.19	-1.86	-2.82
10	Sgpl1	4	1.74	0.599	3.48	0.00111
11	Sgpl1	5	0.819	0.599	1.81	-0.169
12	Sgpl1	6	0.211	0.599	1.2	-0.774
13	Slc11a1	1	-2.06 (active)	-2.84	-1.63	-2.49
14	Slc11a1	2	-2.68 (active)	-2.84	-3.18	-2.17
15	Slc11a1	3	-3.23 (active)	-2.84	-3.29	-3.18
16	Slc11a1	4	0.00946	-0.532	-0.105	0.124
17	Slc11a1	5	-0.766	-0.532	-0.818	-0.714
18	Slc11a1	6	-1.14	-0.532	-1.92	-0.35
19	Ctf1	1	-1.6	-2.82	-1.95	-1.26
20	Ctf1	2	-2.82 (active)	-2.82	-2.99	-2.64
21	Ctf1	3	-4.74 (active)	-2.82	-4.64	-4.84
22	Ctf1	4	4.59 (active)	-3.24	7.45	1.73
23	Ctf1	5	-3.72 (active)	-3.24	-4.22	-3.22
24	Ctf1	6	-3.72 (active)	-3.24	-4.19	-3.25

In a second layout: entries from further up
Slc11a1 #3
- TNF reporter z-score, mean: -3.23 (active)
- gene median z, three same-vendor siRNAs: -2.84
- TNF reporter z-score, repeat 1: -3.29
- TNF reporter z-score, repeat 2: -3.18

Slc11a1 #4
- TNF reporter z-score, mean: 0.00946
- gene median z, three same-vendor siRNAs: -0.532
- TNF reporter z-score, repeat 1: -0.105
- TNF reporter z-score, repeat 2: 0.124
